Where a name gives a salt, the structure may show the parent alone. This is one part of the list. The data scatter; read single values as rough.
These compounds were tested on Peyronie's disease tunica albuginea primary fibroblasts (assay: cell viability (DRAQ5 nuclear stain) relative to TGF-beta1-only control; higher = more viable cells). Details: 10 µM; TGF-beta1 10 ng/mL; 72 h.

SMILES	cell viability
O=C1c2cccc(O)c2C(=O)c2c(O)cccc21 [Danthron]	86.2%
CCOC(N)=O [Urethane]	84.6%
Cc1c(C(=O)Nc2ccc(N3C[C@@H](C)O[C@@H](C)C3)nc2)cccc1-c1ccc(OC(F)(F)F)cc1 [Sonidegib (Erismodegib, NVP-LDE225)]	88%
CCOC(CN1CCN(CC(C)C(=O)c2ccccc2)CC1)c1ccccc1 (stereo not drawn) [Eprazinone 2HCl]	94.9%
OCC(CO)N[C@H]1C[C@](O)(CO)[C@@H](O)[C@H](O)[C@H]1O [Voglibose]	91.8%
Cc1ccc(Nc2nccc(N(C)c3ccc4c(C)n(C)nc4c3)n2)cc1S(N)(=O)=O	81%
Cc1ccc(Nc2nccc(N(C)c3ccc4c(C)n(C)nc4c3)n2)cc1S(N)(=O)=O [Pazopanib]	72.8%
COc1cc(Nc2ncc3c(n2)-c2ccc(Cl)cc2C(c2c(F)cccc2OC)=NC3)ccc1C(=O)O [Alisertib (MLN8237)]	72.1%
CCCCC(=O)N(Cc1ccc(-c2ccccc2-c2nnn[nH]2)cc1)[C@H](C(=O)O)C(C)C [Valsartan]	87.8%
C[C@H](CCC(=O)O)[C@H]1CC[C@H]2[C@@H]3C(=O)C[C@@H]4CC(=O)CC[C@]4(C)[C@H]3CC(=O)[C@]12C [Dehydrocholic acid]	92.8%
CO[C@H]1C[C@H](O[C@@H]2/C(C)=C/C[C@@H]3C[C@@H](C[C@]4(CC[C@H](C)[C@@H](C5CCCCC5)O4)O3)OC(=O)[C@@H]3C=C(C)/C(=N/O)[C@H]4OC/C(=C\C=C\[C@@H]2C)[C@]43O)O[C@@H](C)[C@@H]1O [Selamectin]	67.9%
O=C1c2c(O)ccc(O)c2C(=O)c2c(NCCNCCO)ccc(NCCNCCO)c21 [Mitoxantrone 2HCl]	90.8%
O=C(NC(Cc1cc(=O)[nH]c2ccccc12)C(=O)O)c1ccc(Cl)cc1 (stereo not drawn) [Rebamipide]	90.6%
COC(=O)/C=C/C(=O)OC [Dimethyl Fumarate]	93%
C[N+](C)(C)CCOC(N)=O [Carbachol]	96.2%
CN(C)CCc1c[nH]c2ccc(CS(=O)(=O)N3CCCC3)cc12 [Almotriptan Malate]	92%
CC(C)C[C@H](NC(=O)[C@@H](Cc1cccc2ccccc12)NC(=O)[C@H](Cc1ccc(O)cc1)NC(=O)[C@H](CO)NC(=O)[C@H](Cc1c[nH]c2ccccc12)NC(=O)[C@H](Cc1cnc[nH]1)NC(=O)[C@@H]1CCC(=O)N1)C(=O)N[C@@H](CCCNC(=N)N)C(=O)N1CCC[C@H]1C(=O)NCC(N)=O [Nafarelin Acetate]	101%
O=C(O)CCC(=O)c1ccc(-c2ccccc2)cc1 [Fenbufen]	93.6%
CCCCc1ncc(/C=C(\Cc2cccs2)C(=O)O)n1Cc1ccc(C(=O)O)cc1 [Eprosartan Mesylate]	93.3%
CN1CCN2c3ccccc3Cc3ccccc3C2C1 (stereo not drawn) [Mianserin HCl]	97.1%
CCCCCCCCOc1ccccc1C(=O)Nc1ccc(C(=O)OCC[N+](C)(CC)CC)cc1 [Otilonium Bromide]	98.5%
CCNC1(C(N)=O)CCN(c2ncnc3c2nc(-c2ccccc2Cl)n3-c2ccc(Cl)cc2)CC1	89.1%
CCOC(=O)CC(=O)N1CCSC1COc1ccccc1OC (stereo not drawn) [Moguisteine]	85.3%
CC(=O)Oc1ccc(C(c2ccc(OC(C)=O)cc2)c2ccccn2)cc1 [Bisacodyl]	87.7%
O=[N+]([O-])c1ccc(O)c2ncccc12 [Nitroxoline]	83.3%

Reprinted at random: six records from the list, in no set order.
SMILES	cell viability
O=C1c2c(O)ccc(O)c2C(=O)c2c(NCCNCCO)ccc(NCCNCCO)c21 [Mitoxantrone 2HCl]	90.8%
COC(=O)/C=C/C(=O)OC [Dimethyl Fumarate]	93%
CCOC(=O)CC(=O)N1CCSC1COc1ccccc1OC (stereo not drawn) [Moguisteine]	85.3%
O=C1c2cccc(O)c2C(=O)c2c(O)cccc21 [Danthron]	86.2%
C[N+](C)(C)CCOC(N)=O [Carbachol]	96.2%
COc1cc(Nc2ncc3c(n2)-c2ccc(Cl)cc2C(c2c(F)cccc2OC)=NC3)ccc1C(=O)O [Alisertib (MLN8237)]	72.1%

Remaining list, next part.

SMILES	cell viability
N#CC[C@H](C1CCCC1)n1cc(-c2ncnc3[nH]ccc23)cn1 [Ruxolitinib Phosphate]	86.9%
N#CC[C@H](C1CCCC1)n1cc(-c2ncnc3[nH]ccc23)cn1	95.2%
NNC(=O)c1ccncc1.Nc1ccc(C(=O)O)c(O)c1 [Pasiniazid]	87.6%
CCCc1nn(C)c2c(=O)[nH]c(-c3cc(S(=O)(=O)N4CCN(C)CC4)ccc3OCC)nc12 [Sildenafil Citrate]	91.1%
CCCc1nn(C)c2c(=O)[nH]c(-c3cc(S(=O)(=O)N4CCN(C)CC4)ccc3OCC)nc12 [Sildenafil]	73.1%
CCCc1nn(C)c2c(=O)[nH]c(-c3cc(S(=O)(=O)N4CCN(C)CC4)ccc3OCC)nc12 [Sildenafil Mesylate]	95.5%
CCC1(C)CC(=O)NC1=O (stereo not drawn) [Ethosuximide]	83.5%
C[C@H](Nc1ncnc2nc[nH]c12)c1cc2cccc(Cl)c2c(=O)n1-c1ccccc1 [Duvelisib (IPI-145, INK1197)]	62.7%
CC(NCCc1ccc(O)cc1)C(O)c1ccc(O)cc1 (stereo not drawn) [Ritodrine HCl]	89.9%
C[N+](C)(CCOc1ccccc1)Cc1ccccc1.O=C([O-])c1cc2ccccc2cc1O [Bephenium Hydroxynaphthoate]	86.4%
CCc1nn(CCCN2CCN(c3cccc(Cl)c3)CC2)c(=O)n1CCOc1ccccc1 [Nefazodone hydrochloride]	106%
O=C(c1ccc(F)c(F)c1Nc1ccc(I)cc1F)N1CC(O)([C@@H]2CCCCN2)C1 [Cobimetinib (GDC-0973, RG7420)]	64.9%
Cc1cn(-c2cc(NC(=O)c3ccc(C)c(Nc4nccc(-c5cnccn5)n4)c3)cc(C(F)(F)F)c2)cn1 [Radotinib]	101%
CC(C)[C@H](O)C(=O)N[C@@H](C)C(=O)N[C@@H]1C(=O)N(C)CCc2ccccc21	69.8%
Nc1nc(/C(=C/CC(=O)O)C(=O)N[C@@H]2C(=O)N3C(C(=O)O)=CCS[C@H]23)cs1 [Ceftibuten dihydrate]	85.9%
Nc1ccc(/N=N/c2ccccc2)c(N)n1 [Phenazopyridine HCl]	75.1%
CN1CCC(=C2c3ccccc3CCn3c(C=O)cnc32)CC1 [Alcaftadine]	83.8%
CCC(=O)O[C@]1(C(=O)SCF)[C@H](C)C[C@H]2[C@@H]3C[C@H](F)C4=CC(=O)C=C[C@]4(C)[C@@]3(F)[C@@H](O)C[C@@]21C [Fluticasone propionate]	77%
O=C(O)c1ccccc1Nc1cccc(C(F)(F)F)c1 [Flufenamic acid]	75.5%
Cc1cccc(C)c1OCC(=O)N[C@@H](Cc1ccccc1)[C@@H](O)C[C@H](Cc1ccccc1)NC(=O)[C@H](C(C)C)N1CCCNC1=O [Lopinavir]	97.3%
O=C1O[C@H]([C@@H](O)CO)C(O)=C1O [Vitamin C]	81.6%
Clc1ccc(C(c2ccccc2Cl)C(Cl)Cl)cc1 (stereo not drawn) [Mitotane]	98.3%
CCCCN1CCCC[C@H]1C(=O)Nc1c(C)cccc1C [Levobupivacaine HCl]	88.4%
O=C1Nc2ccc(Cl)cc2[C@@](C#CC2CC2)(C(F)(F)F)O1 [Efavirenz]	90.3%
Nc1ccc(C(=O)O)c(O)c1 [Sodium 4-Aminosalicylate]	91.4%

SMILES	cell viability
CC(C)C(=O)c1c(C(C)C)nn2ccccc12 [Ibudilast]	94.2%
CC(=O)NC(CC(C)C)C(=O)O (stereo not drawn) [Acetylleucine]	94.5%
CCS(=O)(=O)N1CCN(c2ccc(Nc3ncc(C(N)=O)c(NC4CC4)n3)cc2)CC1	80.5%
C[N+](C)(C)C[C@H](O)CC(=O)[O-] [L-carnitine]	93%
OC(CCN1CCCC1)(c1ccccc1)C1CCCCC1 (stereo not drawn) [Procyclidine HCl]	87.2%
CC(CN(C)C)CN1c2ccccc2CCc2ccccc21 (stereo not drawn) [Trimipramine Maleate]	84.5%
CCCCOc1ccc(C(=O)CCN2CCCCC2)cc1 [Dyclonine HCl]	98.3%
Cn1nnc2c(C(N)=O)ncn2c1=O [Temozolomide]	97.8%
CC(C)(C)NC(=O)[C@H]1CC[C@H]2[C@@H]3CC[C@H]4NC(=O)C=C[C@]4(C)[C@H]3CC[C@]12C [Finasteride]	77.1%
C=CC[N+]1([C@H]2C[C@H]3[C@@H]4CC[C@H]5C[C@H](O)[C@@H](N6CCOCC6)C[C@]5(C)[C@H]4CC[C@]3(C)[C@H]2OC(C)=O)CCCC1 [Rocuronium Bromide]	102%
C=C1CC[C@H](O)C/C1=C/C=C1\CCC[C@]2(C)[C@@H]([C@H](C)/C=C/[C@H](C)C(C)C)CC[C@@H]12 [Vitamin D2]	73.9%
Nc1nc(N)c2nc(-c3ccccc3)c(N)nc2n1 [Triamterene]	94.7%
Cc1c(Nc2ncccc2C(=O)O)cccc1C(F)(F)F [Flunixin Meglumin]	85.5%
CC[C@H](c1ccc(O)cc1)[C@@H](CC)c1ccc(O)cc1 [Hexestrol]	93.7%
OC[C@@H](O)CN1CCN(c2ccccc2)CC1 [Levodropropizine]	95.7%
N#CC1(c2ccc(NC(=O)c3cccnc3NCc3ccncc3)cc2)CCCC1	83%
CC(=O)OCC(=O)[C@@]1(O)CC[C@H]2[C@@H]3CCC4=CC(=O)C=C[C@]4(C)[C@H]3[C@@H](O)C[C@@]21C [Prednisolone Acetate]	77.3%
COC(=O)N[C@H](C(=O)N1CC2(CC2)C[C@H]1c1nc(-c2ccc3c(c2)C(F)(F)c2cc(-c4ccc5[nH]c([C@@H]6[C@H]7CC[C@H](C7)N6C(=O)[C@@H](NC(=O)OC)C(C)C)nc5c4)ccc2-3)c[nH]1)C(C)C [Ledipasvir (GS5885)]	76.9%
COc1ccc(CNc2nc(N3CCC[C@H]3CO)ncc2C(=O)NCc2ncccn2)cc1Cl [Avanafil]	96.4%
CN(Cc1cc(Br)cc(Br)c1N)C1CCCCC1 [Bromhexine HCl]	92%
NCCc1ccc(O)c(O)c1 [Dopamine HCl]	118%
COc1ccc(-c2ccc3cc(C(=O)O)ccc3c2)cc1C12CC3CC(CC(C3)C1)C2 [Adapalene]	38.1%
CCN1CCCC1CNC(=O)c1cc(S(N)(=O)=O)ccc1OC (stereo not drawn) [Sulpiride]	90.6%

From the supplement of paper PMC9744312
